PubChem BioAssay AID1259405 – NCATS | 2018
Test: 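Mouse-designed siRNAs used to find CHO productivity engineering targets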 (primary screen). Cells: Chinese hamster CHO-K1 ovary cells with stable secreted eGFP expression. Reagent: single siRNA against mouse genes, 0.8 pmol siRNA per well (2 µl of 400 nM stock). Duration: 3 days. Measured: 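Percent of the per-plate non-targeting control median for intracellular GFP per well by laser scanning cytometry and for cell viability by ATP luminescence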. Direction: GFP, % of control: higher = more GFP per well, higher productivity; viability (ATP), % of control: higher = more viable cells (more ATP). Rule for the call: 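Called active when intracellular GFP, relative to negative control, is at or above 120%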.
The whole screen tested about 50,000 reagents; below is a part drawn at random. About 4,000 of all reagents (8%) count as active. 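Mouse siRNA library applied to hamster cells; one well for each siRNA.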 Reagents against one gene are numbered here. Reagent sequences are not shown.

no.	Gene	reagent no.	GFP, % of control	viability (ATP), % of control	activity call
1	Tiam2	1	68.5	111	inactive
2	Tiam2	2	82.2	87.3	inactive
3	Tiam2	3	60.8	79.2	inactive
4	Nhlrc1	1	79.5	84.5	inactive
5	Nhlrc1	2	101	93.2	inactive
6	Nhlrc1	3	75.4	99.9	inactive
7	Hrc	1	108	92.1	inactive
8	Hrc	2	88.9	60.1	inactive
9	Tmem14c	1	46.6	46.6	inactive
10	Tmem14c	2	73.7	146	inactive
11	Tmem14c	3	114	120	inactive
12	Selenoi	1	50.2	26.5	inactive
13	Selenoi	2	77.3	85.3	inactive
14	Selenoi	3	63.4	44.2	inactive
15	Mindy1	1	43.7	43	inactive
16	Mindy1	2	33.1	60.3	inactive
17	Mindy1	3	53	101	inactive
18	Drg2	1	138	82.9	active
19	Drg2	2	98.9	92.2	inactive
20	Drg2	3	93.4	65.2	inactive
21	Pcdhb5	1	75	67.5	inactive
22	Pcdhb5	2	91.1	79.1	inactive
23	Irak4	1	35.1	32.9	inactive
24	Pde4dip	1	91.9	65.3	inactive
25	Pde4dip	2	159	114	active
26	Pde4dip	3	102	107	inactive
27	Pde4dip	4	102	81.1	inactive
28	Pde4dip	5	57.7	51.7	inactive
29	Pde4dip	6	51.1	62.9	inactive
30	Pde4dip	7	54.5	56.8	inactive
31	Pde4dip	8	52.3	107	inactive
32	Pde4dip	9	99.9	104	inactive
33	Metrn	1	80.8	86.3	inactive
34	Metrn	2	78.7	80.8	inactive
35	Metrn	3	78.6	60.3	inactive

Continued (6 carried over from the part before).
no.	Gene	reagent no.	GFP, % of control	viability (ATP), % of control	activity call
30	Pde4dip	7	54.5	56.8	inactive
31	Pde4dip	8	52.3	107	inactive
32	Pde4dip	9	99.9	104	inactive
33	Metrn	1	80.8	86.3	inactive
34	Metrn	2	78.7	80.8	inactive
35	Metrn	3	78.6	60.3	inactive
36	Scd2	1	47.3	54.6	inactive
37	Scd2	2	61.1	63.9	inactive
38	Scd2	3	76.6	101	inactive
39	Zfat	1	26.9	47.4	inactive
40	Zfat	2	68.9	67.6	inactive
41	Zfat	3	42.6	51.2	inactive
42	Tex11	1	44	54.2	inactive
43	Tex11	2	73	89.8	inactive
44	Tex11	3	86.1	101	inactive
45	Brca2	1	123	123	active
46	Brca2	2	82.4	55.1	inactive
47	Brca2	3	64.2	75.9	inactive
48	Pdgfrb	1	75.5	72.4	inactive
49	Or4c117	1	49.7	44.2	inactive
50	Or4c117	2	91.8	68.1	inactive
51	Or4c117	3	35.5	84.2	inactive
52	Or52e3	1	85.4	69.1	inactive
53	Or52e3	2	31.4	62.3	inactive
54	Or52e3	3	40.7	75.2	inactive
55	Spint1	1	101	59.4	inactive
56	Spint1	2	70.5	81.8	inactive
57	Spint1	3	91.3	105	inactive
58	Zfp101	1	31.2	21.6	inactive
59	Zfp101	2	79.8	77.9	inactive
60	Zfp101	3	77.4	77.3	inactive
61	En2	1	65.5	62.7	inactive
62	En2	2	120	103	inactive
63	En2	3	50.5	50.3	inactive
64	Arhgap6	1	50.5	49.1	inactive
65	Arhgap6	2	70	61.5	inactive
66	Arhgap6	3	83.1	73.8	inactive
67	Zfp39	1	127	111	active
68	Zfp39	2	78.7	63.9	inactive
69	Zfp39	3	80.4	92.1	inactive
70	Gsdmc2	1	147	88.5	active
71	Gsdmc2	2	77.9	70.2	inactive
72	Gsdmc2	3	145	113	active
73	Prodh2	1	109	56.7	inactive
74	Prodh2	2	38.3	52.9	inactive
75	Prodh2	3	41.9	39.2	inactive
76	Ndufs3	1	108	108	inactive
77	Ndufs3	2	91.2	84.7	inactive
78	Ndufs3	3	96.7	75.1	inactive
79	Or13a19	1	22.6	23.7	inactive
80	Or13a19	2	84.4	79.3	inactive
81	Or13a19	3	40.5	87	inactive
82	Pex26	1	98	109	inactive
83	Pex26	2	61.3	48	inactive
84	Pex26	3	70.9	109	inactive
